Test results reported in article PMC4063703.
Results are given in words; binding and its absence hold for the method and conditions named. In cells and extracts the contact can be indirect. Some results given as binding are weak or reduced against the parent protein; the word gives no strength. Tags and fused reporters may be left off the sequences shown.

Biological target: T1, Yth1-3flag (fission yeast) (UniProt Q9UTD1)
T1 sequence: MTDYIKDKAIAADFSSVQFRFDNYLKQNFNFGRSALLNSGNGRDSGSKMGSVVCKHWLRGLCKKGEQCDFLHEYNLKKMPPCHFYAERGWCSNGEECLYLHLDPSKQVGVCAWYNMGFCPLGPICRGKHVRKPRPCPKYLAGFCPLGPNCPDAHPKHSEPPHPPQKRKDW
Test: co-IP; clarified fission yeast extracts (50 mM HEPES pH 7.6, 75 mM KCl, 1 mM MgCl2, 1 mM EGTA, 0.1% Triton) incubated 60 min at 4°C with Protein A Dynabeads carrying the antibody; western blot; cycling cells or cells in early mitosis (nda3KM311); with or without Swd2.2, with or without Ppn1, extracts treated or not with RNase A

B1: Pfs2-GFP (protein, UniProt Q9UTN4 1-509)
chain: MERAENARIIQKPMTRRTVDYGSGLSKYIVNRHLRSNRYHIHVPRPNPNQIINLYPPYEYKYNNTSSLCTKYIHTSANKARHVINVVRWTPDGRRLLTGSSTGEFTLWNGLTFNFELINQSHDYAVRCAEWSTDGRWLISGDGGGMVKYFEPNLNNVKIVQAHEMEVRDVAFSPNDSKFVTASDDGSLKVWNFHMSTEELKLTGHGWDVKTVDWHPSKGLLASGSKDNLVKFWDPRTGTCIATLHGHKNTIMQASFQKNFGSNYLATVSRDSTCRVFDLRAMKDVRVLRGHEKDVNCVTWHPLYPNLLTTGGSDGSVNHYSLDEPPLLSQQKYHEKHPNVTLSASSYLLYPTAEIPFAHDLGIWSMQYHPLGHLLCTGSNDKTTRFWSRSRPDDKESTMDRHHLGEEQSEAMLSQRKAAIEEDDNYEPDENPLTETLANAHNPQFSGVLNLPGLGTMPSFPSPYQHGQPQIPGMLHASLSNSYAEPSTQNSFIPGLTSKSQDGYPQNYR
Q: Which binding does the source give for B1 here?
A: binds
